According to PMC9374335, “C11orf94/Frey is a key regulator for male fertility by controlling Izumo1 complex assembly” (Science Advances, 2022):

T1: C11orf94 (endogenous, mouse testis) (mouse (endogenous in testis)) (UniProt Q8CF31)
T1 sequence: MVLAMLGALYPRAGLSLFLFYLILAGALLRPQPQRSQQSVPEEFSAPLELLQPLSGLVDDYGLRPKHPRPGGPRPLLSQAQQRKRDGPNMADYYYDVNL

T2: C11orf94 (endogenous, mouse testis) (mouse (endogenous in testis)), Q8CF31
T2 chain: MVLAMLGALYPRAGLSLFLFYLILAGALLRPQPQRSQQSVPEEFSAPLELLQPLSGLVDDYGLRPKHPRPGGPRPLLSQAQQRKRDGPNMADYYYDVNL


Legend:
[1] = target: T1, C11orf94 (endogenous, mouse testis) (mouse (endogenous in testis)); test: affinity purification with mass spectrometry; C11orf94 precipitated with anti-C11orf94 Sepharose from CHAPSO homogenates of wild-type testes; C11orf94-deficient testes as negative control; on-bead trypsin digest, nanoLC-MS/MS; three runs
[2] = target: T2, C11orf94 (endogenous, mouse testis) …; test: as above; conditions: remark: other sources report otherwise

Row | binding [1] | binding [2] | Binder
1 | binds | – | SPPL2c (endogenous, mouse testis) (enzyme, UniProt A2A6C4 29-690) EYGLVRVVSKNWSKDYCVLYSSDYVNLPRDLHHAPLLSLHDGTKTPWCPDEDSFHQAQDSSPRQRPLHQTTTMVTRGNCSFYAKGWLAQDQGAQGLLIVSRARNQQCSDTISKPQDPSKPWPALTIPVAVLRYTDMLDIVSHTYGDTDVRVAMFAPLEPVTDYNMAIIFILAVGTVAAGGYWAGLMEANKLQRRQAQRGGGLGGHNQQQTVAAERSQRAWEDDDFEDAPMDFTPAMTGAVVTMSCSIMILLYFFYDCFVYVMIGIFSLGASTGLYSCLAPILCHLPLWRYQWVLPGQRVSVTWPLLLLAGLCAMVTVLWVIHRNEDHWAWLLQDTLGVAYCLFVLRRVRLPTFKNCTLFLLALLAFDVFFVFITPLFTKTGESIMVEVASGPADSSSHERLPMVLKVPRLSFSALTLCNQPFSILGFGDIVVPGFLVAYCHRFDMQVQSRQVYYMACTVAYAVGLLVTFVAMILMQMGQPALLYLVSSTLLTSLAVATCRQEFTLFWTGQGRAKIPAEPVAQPCIASAVGSKMKLEDAKDSRTTNRFEQAVDGESGDLESSTGDDMAEMVTLSEDEATSPEGHSESSEGWSDTNLDPNELPSGSPMALEAMLIPLIQPIPHPSELGHIRTQSRVHDSSLPWMGLHKRKGLKVKKSMSAQAPL
2 | – | binds | Izumo1 (endogenous, mouse testis and sperm), Q9D9J7 22-397 (protein) CIKCDQFVTDALKTFENTYLNDHLPHDIHKNVMRMVNHEVSSFGVVTSAEDSYLGAVDENTLEQATWSFLKDLKRITDSDLKGELFIKELLWMLRHQKDIFNNLARQFQKEVLCPNKCGVMSQTLIWCLKCEKQLHICRKSLDCGERHIEVHRSEDLVLDCLLSWHRASKGLTDYSFYRVWENSSETLIAKGKEPYLTKSMVGPEDAGNYRCVLDTINQGHATVIRYDVTVLPPKHSEENQPPNIITQEEHETPVHVTPQTPPGQEPESELYPELHPELYPELIPTVAQNPEKKMKTRLLILLTLGFVVLVASIIISVLHFRKVSAKLKNASDEVKPTASGSKSDQSLSQQMGLKKASQADFNSDYSGDKSEATEN

These are yes or no findings as the source states them, for the method shown. In cells and extracts the contact can be indirect. A yes stands for co-enrichment or nearness to the bait. Other partners may have been found.
